Values quoted from earlier work, collected in patent publication US20040220086A1, “Methods and materials for targeting and affecting selected cells” (priority 2001, published 2004).
For at least one compound, name, drawing or mass did not settle the structure.

Settings: cited from earlier work

Compound | Ionic Radius (Å)
[Bi] [Bismuth] | 0.96
[Ru] [Ruthenium] | 0.67
